# Binding screen against folded nucleic acids

From ROBIN, a set of small-molecule microarray screens (doi:10.1002/anie.202211358).

Targets, with sequences 5′ to 3′:
TPP: TPP riboswitch RNA three-way junction, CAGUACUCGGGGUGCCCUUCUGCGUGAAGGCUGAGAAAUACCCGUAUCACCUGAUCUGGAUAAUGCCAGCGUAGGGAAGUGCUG. About 160 hits among about 24,000 compounds.
SAM-II: SAM-II riboswitch RNA pseudoknot, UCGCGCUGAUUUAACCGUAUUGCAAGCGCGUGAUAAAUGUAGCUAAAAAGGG. About 200 hits among about 21,000 compounds.
PreQ1: PreQ1 riboswitch RNA pseudoknot, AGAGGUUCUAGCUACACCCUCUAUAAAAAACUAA. From B. subtilis. About 170 hits among about 24,000 compounds.

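Each compound is printed as two spots on a slide made to bind it covalently, so it has no test concentration; the read-out is fluorescence of the bound, labelled oligonucleotide. For the PreQ1, TPP and SAM-II riboswitches the laboratory earlier reported (doi:10.1038/s41467-019-09493-3) 1 µM RNA, 2 h, and a rule that included a mean Z-score above 3 (spot signal-to-noise against the whole library), a score well above that on a control array, and duplicate spots agreeing (coefficient of variation under 100). The data file gives only the calls; its cut-offs may differ, and compounds hitting several targets are kept. These are primary screening calls, not affinities; a compound without a hit may have attached poorly or may still bind in solution.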 “hit” means called a hit, “no hit” means screened and not called a hit. The compounds are a random part of those screened. A target missing from an entry has no call listed here. A dash means that no call is listed here.

compound | TPP | SAM-II | PreQ1
CC(C)CCNc1nc2c(-c3ccccc3)nnn2c2ccccc12 | no hit | no hit | no hit
C[C@H](Cc1cc2c(c(C(N)=O)c1)N(CCCO)CC2)NCCOc1ccccc1OCC(F)(F)F | no hit | no hit | no hit
N#Cc1c(N)nc2c(c1-c1cccnc1)CCCCCC2 | no hit | no hit | no hit
CCCc1n[nH]c2c1C1(C(=O)Nc3ccc(Cl)cc31)C(C#N)=C(N)O2 (stereo unspecified) | no hit | no hit | no hit
Cc1ccc(C)c(Nc2c(-c3ccccc3O)nc3ncccn23)c1 | no hit | no hit | no hit
c1cncc(-n2cccc2CN2CCC3(CCNCC3)C2)c1 | no hit | no hit | no hit
CNc1cc(C(=O)N2CCN(CC(=O)O)CC(O)C2)ccn1 (stereo unspecified) | no hit | no hit | no hit
Cc1nc2c(c(NCCCN(C)C)n1)CCC2 | no hit | - | no hit
COc1ccc2cc3[n+](cc2c1OC)CCc1cc2c(cc1-3)OCO2 | no hit | no hit | no hit
c1cc(CNCC2CCCO2)c2cc[nH]c2c1 (stereo unspecified) | no hit | no hit | no hit
O=C(O)c1c(CNCc2ccccn2)c2ccccc2n1Cc1ccccc1 | no hit | - | no hit
COc1ccccc1Nc1c(-c2ccc(N3CCOCC3)cc2)nc2cnccn12 | no hit | - | no hit
COc1cccc([C@@H]2CCN(CCC(C)(C)C)C[C@H]2O)c1 | no hit | no hit | no hit
Cc1cccc(OCCn2c(SCCO)nc3ccccc32)c1 | no hit | no hit | no hit
O=S(=O)(NCCn1cc(C2CCCNC2)nn1)c1ccc(Cl)cc1 (stereo unspecified) | no hit | no hit | no hit
OC[C@H]1CN(Cc2cc3ccccc3s2)C[C@H]1CN1CCOCC1 | no hit | no hit | no hit
Cn1c(=O)cc(N)n(-c2ccccc2)c1=O | no hit | no hit | no hit
O=C(CCc1cccnc1)N1CCOCC(O)C1 (stereo unspecified) | no hit | no hit | no hit
CC(C)O[C@H]1CN(C(=O)c2ccc3nc(-c4ccccc4)cn3c2)C[C@@H]1O | no hit | no hit | no hit
O=S(=O)(c1ccc(F)cc1)c1nc(-c2ccc(F)cc2)oc1NCCCN1CCOCC1 | no hit | - | no hit
N#Cc1c(N)nc2c(c1-c1ccccc1Cl)CCCC2 | no hit | no hit | no hit
CCN(CCN)c1ccc2c(=O)[nH][nH]c(=O)c2c1 | no hit | no hit | no hit
CCOc1cccc(C2CC(=O)NCc3nc(N)sc32)c1 (stereo unspecified) | no hit | no hit | no hit
CC1CCCN(C(=O)c2ccc(CNc3c(N4CCCCC4)c(=O)c3=O)cc2)C1 (stereo unspecified) | no hit | - | no hit
Nc1ccc2oc(-c3ccc(-c4ccccc4)cc3)nc2c1 | no hit | no hit | no hit
COc1ccccc1N(CC(O)CN(CC(C)C)CC(C)C)S(=O)(=O)c1ccc(C)cc1 (stereo unspecified) | no hit | no hit | no hit
Cc1[nH]nc(CCC(=O)N2CC[C@@H](c3ccc4ccccc4c3)[C@H](O)C2)c1C | no hit | no hit | no hit
CCc1ccc(NC(=O)Cn2nnc(C(=O)OC)c2N)cc1 | no hit | no hit | no hit
OCCCc1nc2ccccc2n1CCCCOc1ccc(Cl)cc1 | no hit | no hit | no hit
CCCOC(=O)c1sc2nc(C)c(C)c(C)c2c1N | no hit | no hit | no hit
CC(C(=O)N1CCC2(CC1)NCCNC2=O)c1ccc(-c2ccccc2)c(F)c1 (stereo unspecified) | no hit | no hit | no hit
COc1cc(CNCc2cc(Br)ccc2OC)cc(OC)c1 | no hit | no hit | no hit
COc1ccc(/C(C#N)=C/c2cccnc2)cc1 | no hit | no hit | no hit
COc1ccc(C2(CNCC(O)COc3ccc([N+](=O)[O-])cc3)CCCC2)cc1OC (stereo unspecified) | no hit | no hit | no hit
Cc1c(C#N)c(N)n(CCN2CCCC2)c1C | no hit | no hit | no hit
CC(CCc1ccccc1)NCc1c(C(=O)O)n(C)c2ccccc12 (stereo unspecified) | no hit | - | no hit
Cc1cccc(NC(=O)CCc2c(C)nc3nc(CN)nn3c2C)c1 | no hit | - | no hit
CN(Cc1ccno1)C(=O)CC1COCCN1 (stereo unspecified) | no hit | no hit | no hit
COc1ccc(-c2cn3c4c(=O)n(C)c(=O)n(C)c4nc3n2CCO)cc1 | no hit | no hit | no hit
O=C1CCC2(CCNCC2)CN1Cc1cc(C(F)(F)F)ccc1F | no hit | no hit | no hit
CCc1cc(N2Cc3cnn(CCO)c3C2)nc(N2CCCC2)n1 | no hit | no hit | no hit
NC1=C(c2nc3ccccc3[nH]2)C(=O)CN1C1CCCCC1 | no hit | - | no hit
Nc1nnc(CCCn2c3ccccc3c(=O)c3ccccc32)s1 | no hit | no hit | no hit
Cn1cnnc1CCn1ccnc1-c1ccc(C#CCO)s1 | no hit | no hit | no hit
Cc1c(Cl)cccc1NS(=O)(=O)c1cc(Br)cnc1N | no hit | - | no hit
Fc1ccccc1Nc1ncnc2c1oc1ccccc12 | no hit | no hit | no hit
N#CC1=C(N)Oc2c(oc(CO)cc2=O)C1c1ccc(F)cc1F (stereo unspecified) | no hit | no hit | no hit
Cc1cc2c(c(=O)o1)C(c1ccc(F)cc1)C(C#N)=C(N)O2 (stereo unspecified) | no hit | no hit | no hit
O=C(O)c1ccc2c(c1)nc(Nc1cccc(Cl)c1)c1ccncc12 | no hit | no hit | no hit
O=C(O)CNc1cccc(C(=O)NCCc2c[nH]cn2)c1 | no hit | no hit | no hit
O=C(NC[C@@H]1C[C@H](F)CN1)c1ccc(CN2CCCCC2)cc1 | no hit | no hit | no hit
Nc1nncs1 | no hit | no hit | no hit
Nc1n[nH]c(CO)n1.O=C(O)CO | no hit | no hit | no hit
COC(=O)C1CCCCN1C(=O)CCc1cc2n(n1)CCCNC2 (stereo unspecified) | no hit | no hit | no hit
CC(C)CC(=O)Nc1cccc(NCc2ccc3c(c2)n(C)c(=O)n3C)c1 | no hit | no hit | no hit
Cc1ccc(S(=O)(=O)[C@H]2CS(=O)(=O)C[C@@H]2NCCc2ccc(F)cc2)cc1 | no hit | - | no hit
Cc1ccc(NC(=O)CSc2nc3c(N)ncnc3[nH]2)cc1 | no hit | no hit | no hit
CCc1ccc(OCC(O)CN2CCC(C)CC2)cc1 (stereo unspecified) | no hit | no hit | no hit
Nc1nnnn1CC(=O)N(Cc1ccc(F)cc1)CC1CCCO1 (stereo unspecified) | no hit | no hit | no hit
O=c1c(Nc2cccc(Cl)c2)c(-c2ccccc2)c1=O | no hit | - | no hit
COC(=O)c1ccc(NC(=O)CCN[C@H]2c3ccccc3C[C@H]2O)cc1 | no hit | no hit | no hit
CNc1oc(-c2ccccc2Cl)nc1S(=O)(=O)c1ccccc1 | no hit | - | no hit
O=C1CC(c2nc3ccccc3n2CC(O)COc2ccccc2)CN1c1ccccc1F (stereo unspecified) | no hit | - | no hit
COCC(=O)Nc1cc(NC(=O)N2CCC[C@@H]2CO)ccc1OC | no hit | no hit | no hit
C#C[C@]1(O)C=C[C@@H]2[C@@H]3CCC4=CC(=O)CC[C@@H]4[C@H]3CC[C@@]21CC | no hit | no hit | no hit
Clc1ccc2nc(-c3ccncc3)c(Nc3ccc4c(c3)OCCO4)n2c1 | no hit | no hit | no hit
C#CCOc1ccc(C2C(C#N)=C(N)Oc3cc(O)ccc32)cc1OCC (stereo unspecified) | no hit | no hit | no hit
COc1ccccc1[C@H]1C[C@@H](c2ccc(Cl)cc2)Nc2nc(N)nn21 | no hit | no hit | no hit
Cc1ccc([C@H]2CN(C(=O)c3cnc4ccc(F)cc4c3O)C[C@@H]2N)o1 | no hit | no hit | no hit
COc1ccccc1-c1nc2cc(Cl)ccc2cc1CN1CCCC(CO)C1 (stereo unspecified) | no hit | no hit | no hit
Cn1cnc([N+](=O)[O-])c1NC(=N)N | no hit | no hit | no hit
CN1CCc2nc(N)c(C#N)c(-c3ccccc3)c2C1 | no hit | no hit | no hit
Cn1ncc2c(NCC(O)c3cccnc3)nc(C3CCCC3)nc21 (stereo unspecified) | no hit | no hit | no hit
Cc1cc(C)c2c(N)c(C(=O)Nc3ccccc3C(F)(F)F)sc2n1 | no hit | no hit | no hit
O=C1c2c(O)ccc(O)c2C(=O)c2c(NCCNCCO)ccc(NCCNCCO)c21 | no hit | no hit | no hit
CCSC[C@H](N)C(=O)N1CCCN(c2ccc(F)cc2)CC1 | no hit | no hit | no hit

For reference, 9 entries once more:

{"compound": "Cn1c(=O)cc(N)n(-c2ccccc2)c1=O", "TPP": "no hit", "SAM-II": "no hit", "PreQ1": "no hit"}
{"compound": "CCc1ccc(NC(=O)Cn2nnc(C(=O)OC)c2N)cc1", "TPP": "no hit", "SAM-II": "no hit", "PreQ1": "no hit"}
{"compound": "COc1ccc2cc3[n+](cc2c1OC)CCc1cc2c(cc1-3)OCO2", "TPP": "no hit", "SAM-II": "no hit", "PreQ1": "no hit"}
{"compound": "O=C(O)CNc1cccc(C(=O)NCCc2c[nH]cn2)c1", "TPP": "no hit", "SAM-II": "no hit", "PreQ1": "no hit"}
{"compound": "CC(C)O[C@H]1CN(C(=O)c2ccc3nc(-c4ccccc4)cn3c2)C[C@@H]1O", "TPP": "no hit", "SAM-II": "no hit", "PreQ1": "no hit"}
{"compound": "Fc1ccccc1Nc1ncnc2c1oc1ccccc12", "TPP": "no hit", "SAM-II": "no hit", "PreQ1": "no hit"}
{"compound": "N#CC1=C(N)Oc2c(oc(CO)cc2=O)C1c1ccc(F)cc1F", "stereo": "stereo unspecified", "TPP": "no hit", "SAM-II": "no hit", "PreQ1": "no hit"}
{"compound": "Nc1n[nH]c(CO)n1.O=C(O)CO", "TPP": "no hit", "SAM-II": "no hit", "PreQ1": "no hit"}
{"compound": "Cc1ccc(NC(=O)CSc2nc3c(N)ncnc3[nH]2)cc1", "TPP": "no hit", "SAM-II": "no hit", "PreQ1": "no hit"}